Assay results from article PMC7064343.
These are yes or no findings as the source states them, for the method shown. In cells and extracts the contact can be indirect. A yes stands for co-enrichment or nearness to the bait. Other partners may have been found.

The chains behind the UniProt entries cited, without tags or fusion partners. Where a name states a change or a piece, a line headed by the entry shows the natural chain unless it says otherwise.
UniProt Q38D74: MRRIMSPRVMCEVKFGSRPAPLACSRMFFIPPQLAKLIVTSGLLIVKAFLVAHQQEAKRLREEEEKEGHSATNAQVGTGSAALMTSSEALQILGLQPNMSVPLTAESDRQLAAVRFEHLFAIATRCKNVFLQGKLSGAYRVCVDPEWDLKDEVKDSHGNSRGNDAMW
UniProt Q57YN2: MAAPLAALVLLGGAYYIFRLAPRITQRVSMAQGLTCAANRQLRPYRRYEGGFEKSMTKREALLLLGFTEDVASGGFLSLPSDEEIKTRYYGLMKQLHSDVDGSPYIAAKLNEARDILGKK

Target: TbPam16-HA (C-terminally triple HA-tagged TbPam16) (Trypanosoma brucei) (UniProt Q38D74)
Assay: affinity purification with mass spectrometry; SILAC-IP. Digitonin-extracted mitochondria-enriched pellets of uninduced and induced cells expressing ACAD-myc, TbPam16-HA or TbPam18-HA were subjected to CoIP. Three biological replicates with a label-switch; quantitative LC-MS.

- binding: binds
Substance: TbPam18 (endogenous) (from UniProt Q57YN2)
